Consider two substances from publication PMC4858978.

By UniProt entry, the sequences of proteins in these tests, tags left out.
UniProt P14618: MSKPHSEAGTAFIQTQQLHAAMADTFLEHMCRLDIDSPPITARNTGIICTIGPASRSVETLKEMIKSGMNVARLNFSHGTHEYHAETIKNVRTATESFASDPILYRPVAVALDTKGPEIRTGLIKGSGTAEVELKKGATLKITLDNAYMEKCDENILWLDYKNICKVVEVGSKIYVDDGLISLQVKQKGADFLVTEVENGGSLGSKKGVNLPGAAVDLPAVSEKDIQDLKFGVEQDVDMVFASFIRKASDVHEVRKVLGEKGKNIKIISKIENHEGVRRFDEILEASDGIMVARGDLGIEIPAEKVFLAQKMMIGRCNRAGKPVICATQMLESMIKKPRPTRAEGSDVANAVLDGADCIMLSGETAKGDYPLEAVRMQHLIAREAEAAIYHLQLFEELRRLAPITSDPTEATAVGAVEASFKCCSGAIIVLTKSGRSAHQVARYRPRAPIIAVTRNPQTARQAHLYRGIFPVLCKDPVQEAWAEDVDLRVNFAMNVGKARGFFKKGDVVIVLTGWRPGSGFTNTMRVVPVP
UniProt O60260: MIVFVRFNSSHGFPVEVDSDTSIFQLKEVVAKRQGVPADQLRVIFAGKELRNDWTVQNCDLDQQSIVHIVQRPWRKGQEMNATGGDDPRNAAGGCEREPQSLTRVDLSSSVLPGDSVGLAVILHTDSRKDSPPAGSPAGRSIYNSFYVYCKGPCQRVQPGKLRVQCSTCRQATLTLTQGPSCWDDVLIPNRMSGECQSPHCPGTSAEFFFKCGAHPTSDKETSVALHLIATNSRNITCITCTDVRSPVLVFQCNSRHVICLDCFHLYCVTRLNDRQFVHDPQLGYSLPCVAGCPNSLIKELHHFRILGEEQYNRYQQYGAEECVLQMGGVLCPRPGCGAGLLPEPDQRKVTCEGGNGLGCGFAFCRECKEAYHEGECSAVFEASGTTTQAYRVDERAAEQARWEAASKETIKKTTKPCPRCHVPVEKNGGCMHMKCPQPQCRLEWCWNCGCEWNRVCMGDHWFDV

Assay [1] has as its target FLAG-HA-PKM2 (double-tagged human pyruvate kinase M2) (human) (UniProt P14618). Briefly: affinity purification with mass spectrometry; cytoplasmic extracts of FLAG-HA-PKM2/H1299 or FLAG-HA-parkin/H1299 stable lines; FLAG M2 and HA two-step immunoprecipitation; LC-MS/MS of gel bands and Western blot of the purified complex; parental H1299 as control. For orientation: In western blotting, separated proteins are transferred to a membrane and probed.

Assay [2] addresses FLAG-HA-parkin (FLAG- and HA-double tagged human parkin) (human) (UniProt O60260). The description is as above.

These are yes or no findings as the source states them, for the method shown. Binding seen in cells or lysates may run through a third protein. Here binding means that the protein was enriched with, or labelled near, the bait; the list need not be complete.

As to “parkin, endogenous (from UniProt O60260 1-465) (enzyme)”, the binding result in assay [1] is recorded as “binds”.
“pyruvate kinase M2, endogenous (from UniProt P14618 1-531) (enzyme)”: the binding result in assay [2] was “binds”.
